Measurements reported in PubChem BioAssay AID652272 (Drosophila RNAi Screening Center, 2013).
The deposit covers about 21,000 reagents; shown is a random part of those that have a named target and a result. Over the whole deposit, 503 (2.4%) got an active call. 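Raw plate light values, not normalised; calls rest on replicate z-scores that were not deposited; hits include reporter decreases as well as increases.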 Unmarked entries are inactive. Names joined by + are all predicted targets of the reagent. Not given: the amount of reagent, the time to read-out.

- Aim: 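Genes whose knock-down decreases or increases Hedgehog reporter output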 (primary screen)
- Cell system: Drosophila clone 8 (Cl8) cells
- Knock-down reagent: long dsRNA against Drosophila genes
- Measurement: 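Firefly light from a Hedgehog-responsive ptc promoter reporter and Renilla reference light, both read on a plate reader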
- Scale: firefly Hh reporter signal: higher = more ptc reporter light; Renilla reference signal: higher = more Renilla control light
- Call rule: 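Hit when the z-score averaged over two replicates is under -2 or over +3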
- Calls: active = hit: reporter lowered or raised; inactive = not a hit

Against CG12985 [SID104199297], the entry reads firefly Hh reporter signal, replicate 1 = 79290; firefly Hh reporter signal, replicate 2 = 1.78e5; Renilla reference signal, replicate 1 = 2480; Renilla reference signal, replicate 2 = 7107.
For Or42b [SID104184705], the values are firefly Hh reporter signal, replicate 1 = 86701; firefly Hh reporter signal, replicate 2 = 79435; Renilla reference signal, replicate 1 = 1480; Renilla reference signal, replicate 2 = 6139.
For CG43155 [SID104199434] the deposit lists firefly Hh reporter signal, replicate 1 = 1.24e5; firefly Hh reporter signal, replicate 2 = 2.54e5; Renilla reference signal, replicate 1 = 5267; Renilla reference signal, replicate 2 = 11607.
After knock-down of CG43155 [SID104199569], the record shows firefly Hh reporter signal, replicate 1 = 1.19e5; firefly Hh reporter signal, replicate 2 = 2.72e5; Renilla reference signal, replicate 1 = 4290; Renilla reference signal, replicate 2 = 10509.
Against CG14613 [SID104200417] the deposit lists firefly Hh reporter signal, replicate 1 = 98231; firefly Hh reporter signal, replicate 2 = 98914; Renilla reference signal, replicate 1 = 2205; Renilla reference signal, replicate 2 = 2490.
Rab9D + Rab9Fa + Rab9E [SID104199645] showed firefly Hh reporter signal, replicate 1 = 76560; firefly Hh reporter signal, replicate 2 = 1.51e5; Renilla reference signal, replicate 1 = 1878; Renilla reference signal, replicate 2 = 5398.
With knock-down of PNPase [SID104194096], the screen gave firefly Hh reporter signal, replicate 1 = 1.13e5; firefly Hh reporter signal, replicate 2 = 89350; Renilla reference signal, replicate 1 = 2256; Renilla reference signal, replicate 2 = 2353.
Against CG7333 [SID104196021] the deposit lists firefly Hh reporter signal, replicate 1 = 7.79e5; firefly Hh reporter signal, replicate 2 = 1.97e5; Renilla reference signal, replicate 1 = 39117; Renilla reference signal, replicate 2 = 4992.
After knock-down of Cyp6a9 [SID104187177], the screen gave firefly Hh reporter signal, replicate 1 = 1.73e5; firefly Hh reporter signal, replicate 2 = 78860; Renilla reference signal, replicate 1 = 4813; Renilla reference signal, replicate 2 = 7532.
After knock-down of Arpc1 [SID104183230], the record shows firefly Hh reporter signal, replicate 1 = 65352; firefly Hh reporter signal, replicate 2 = 59677; Renilla reference signal, replicate 1 = 3568; Renilla reference signal, replicate 2 = 2838.
With knock-down of Cap-D3 [SID104182141], the screen gave firefly Hh reporter signal, replicate 1 = 78149; firefly Hh reporter signal, replicate 2 = 53528; Renilla reference signal, replicate 1 = 1970; Renilla reference signal, replicate 2 = 5780.
Against cola + swif [SID104186618], the entry reads firefly Hh reporter signal, replicate 1 = 1.05e5; firefly Hh reporter signal, replicate 2 = 64518; Renilla reference signal, replicate 1 = 2794; Renilla reference signal, replicate 2 = 5387.
With knock-down of CG7025 [SID104182794], the record shows firefly Hh reporter signal, replicate 1 = 1.48e5; firefly Hh reporter signal, replicate 2 = 63692; Renilla reference signal, replicate 1 = 3893; Renilla reference signal, replicate 2 = 4886.
With knock-down of CG15213 [SID104190005], the record shows firefly Hh reporter signal, replicate 1 = 73482; firefly Hh reporter signal, replicate 2 = 82093; Renilla reference signal, replicate 1 = 8599; Renilla reference signal, replicate 2 = 6566.
